Measurements: PMC12800308
These are yes or no findings as the source states them, for the method shown. In cells and extracts the contact can be indirect.

Protein sequences, listed by entry. Tags and fused reporters are not part of them.
UniProt Q01094: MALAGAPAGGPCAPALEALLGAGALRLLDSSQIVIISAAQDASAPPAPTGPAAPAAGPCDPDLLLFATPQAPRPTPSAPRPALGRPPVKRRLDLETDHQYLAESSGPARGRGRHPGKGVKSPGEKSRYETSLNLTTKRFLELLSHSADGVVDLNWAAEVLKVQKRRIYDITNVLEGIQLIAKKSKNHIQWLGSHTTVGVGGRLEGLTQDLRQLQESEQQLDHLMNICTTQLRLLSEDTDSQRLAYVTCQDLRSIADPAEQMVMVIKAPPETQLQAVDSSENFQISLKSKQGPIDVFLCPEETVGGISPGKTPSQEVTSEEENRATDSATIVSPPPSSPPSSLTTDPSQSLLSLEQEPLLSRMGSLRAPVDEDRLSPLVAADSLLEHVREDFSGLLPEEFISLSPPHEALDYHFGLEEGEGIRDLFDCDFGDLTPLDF
UniProt O75530: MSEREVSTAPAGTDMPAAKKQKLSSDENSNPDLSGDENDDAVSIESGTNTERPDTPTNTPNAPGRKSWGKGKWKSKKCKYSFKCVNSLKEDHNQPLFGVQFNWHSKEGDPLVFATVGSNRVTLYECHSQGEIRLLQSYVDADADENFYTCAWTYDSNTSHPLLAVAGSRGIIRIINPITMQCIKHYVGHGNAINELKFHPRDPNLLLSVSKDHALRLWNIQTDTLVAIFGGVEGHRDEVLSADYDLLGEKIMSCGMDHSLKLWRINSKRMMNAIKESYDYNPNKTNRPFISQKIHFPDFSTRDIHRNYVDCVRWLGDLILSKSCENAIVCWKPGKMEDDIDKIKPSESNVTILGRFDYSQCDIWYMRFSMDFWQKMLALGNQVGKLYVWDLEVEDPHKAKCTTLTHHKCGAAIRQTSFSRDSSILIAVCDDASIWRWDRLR
UniProt Q15022: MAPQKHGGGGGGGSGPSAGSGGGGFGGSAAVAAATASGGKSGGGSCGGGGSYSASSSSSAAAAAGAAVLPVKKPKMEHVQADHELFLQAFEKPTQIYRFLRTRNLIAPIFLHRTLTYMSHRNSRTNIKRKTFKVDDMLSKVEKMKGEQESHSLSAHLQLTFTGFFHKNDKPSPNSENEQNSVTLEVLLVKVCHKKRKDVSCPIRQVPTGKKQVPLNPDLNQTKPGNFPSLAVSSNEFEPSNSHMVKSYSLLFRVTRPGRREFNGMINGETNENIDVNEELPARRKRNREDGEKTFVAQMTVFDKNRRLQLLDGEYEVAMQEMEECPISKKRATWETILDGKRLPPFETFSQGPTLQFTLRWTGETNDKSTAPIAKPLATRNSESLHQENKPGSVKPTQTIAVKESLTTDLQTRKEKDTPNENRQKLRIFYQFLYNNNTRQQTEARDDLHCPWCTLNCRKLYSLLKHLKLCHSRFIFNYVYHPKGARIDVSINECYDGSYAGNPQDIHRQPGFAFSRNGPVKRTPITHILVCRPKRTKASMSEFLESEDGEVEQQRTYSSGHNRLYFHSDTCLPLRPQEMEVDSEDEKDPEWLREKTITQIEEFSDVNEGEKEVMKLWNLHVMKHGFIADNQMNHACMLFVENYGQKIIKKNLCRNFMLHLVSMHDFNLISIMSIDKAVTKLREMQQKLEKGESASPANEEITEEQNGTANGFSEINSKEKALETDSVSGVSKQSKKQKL

Biological target: E2F1 (human (all cell lines of the paper are human)) (UniProt Q01094)
Experiment: co-IP; E2F1 and PRC2 components (Fig. 2j); cells, bait and tags not stated; same IP buffers

Substance | binding
EED (from UniProt O75530 1-441) | no binding
SUZ12 (from UniProt Q15022 1-739) | no binding
